In article PMC12040169 (PLOS Biology, 2025):
The list shows a part of the results.

Each molecule was assayed on T1, CTL2-GFP (C. trachomatis L2/434/Bu, GFP-expressing). Settings: bulk GFP, single well; 28.5 h, 10 µM; inhibitor.
T1 construct: L2/434/Bu, GFP-expressing
Design: species or system HeLa; Intracellular C. trachomatis growth in HeLa cells, bulk GFP fluorescence relative to DMSO

SMILES	% of control remaining
CC1CCN(c2nnnc3c2sc2nc(N4CCOCC4)c4c(c23)CC(C)(C)SC4)CC1 [CBK268062]	129.294%
COc1ccc(S(=O)(=O)NC(C)C(=O)NCc2ccncc2)cc1 (centres unmarked) [CBK269441]	101.787%
COc1ccc(S(=O)(=O)N(CC(=O)O)c2ccc(Cl)cc2)cc1OC [CBK267836]	129.904%
CN(C)c1oc(-c2ccccc2)nc1S(=O)(=O)c1ccccc1 [CBK021477]	69.9084%
Cc1oc2ccc(O)cc2c1C(=O)N(C)CCOc1ccccc1 [CBK282696]	112.89%
O=C(Cc1cn2ccsc2n1)NCCCN1CCCc2ccccc21 [CBK306611]	108.559%
N=C1NC(=O)/C(=C/c2ccc(OC(=O)c3cccc([N+](=O)[O-])c3)cc2)S1 [CBK263606]	100%
CCCCSc1nnc(NS(=O)(=O)c2ccc(NC(C)=O)cc2)s1 [CBK022853]	114.117%
CC1(C)CC(=O)C=C(C(=O)Nc2c(F)cc(F)cc2OC2CCNCC2)O1 [CBK050332T]	80.948%
CC(C)(C)c1ccc(-n2cc(-c3ccc(F)cc3F)nn2)cc1 [CBK094818]	99.2379%
CCN1C(=O)CC2(C1=O)C(=O)N(CCCOc1ccc(Cl)cc1)c1ccc(C)cc12 (centres unmarked) [CBK075648]	160.14%
O=C(CN1C(=O)S/C(=C\c2ccccc2OCc2ccccc2)C1=O)c1ccc(Cl)cc1 [CBK264628]	122.914%
O=C(O)C1CCCN(C(=O)NCc2ccc(F)cc2)C1 (centres unmarked) [CBK161364]	120.121%
Cc1cc(C)n(-c2ccc3nnc(CCC(=O)Nc4nccs4)n3n2)n1 [CBK307617]	104.695%
COc1ccccc1CC(=O)N1CCn2cc(C(F)(F)F)nc2C1 [CBK283806]	103.115%
O=C(O)c1ccc(S(=O)(=O)Nc2nnc(C(F)(F)F)s2)cc1 [CBK062023]	129.401%
Cc1ccc(-n2c(SCC(N)=O)nnc2-c2ccccc2O)c(C)c1 [CBK269673]	150.044%
CC1(C)CCCC2=C1CC(C(=O)O)C(C(=O)NCc1cccnc1)C2 (centres unmarked) [CBK286795]	115.749%
COc1ccc(-c2nccnc2OC)c(OC)c1 [CBK107039]	111.225%
CCOc1ncccc1NC(=O)C(C)n1cccn1 (centres unmarked) [CBK245377]	99.9464%
CC(C)(C)NC(=O)NCC(c1ccc[nH]1)C(F)(F)F (centres unmarked) [CBK021595]	162.88%
O=C(Nc1nc(OCCN2CCCC2=O)cnc1/C=C\c1ccccc1)c1cc2ccccc2s1 [CBK145380]	65.1972%
CS(=O)(=O)N(CC(=O)NCc1ccccn1)c1ccc(I)cc1 [CBK265369]	133.332%
c1ccc(C(NCc2cnc(-c3cnccn3)s2)C2CCC2)cc1 (centres unmarked) [CBK304016]	105.507%
Cc1c(C(=O)O)sc2nc(C=Cc3ccc(OCCC(C)C)cc3)[nH]c(=O)c12 [CBK297539]	123.255%
CC(C)(O)C#Cc1ccccc1C(=O)NC(Cc1c[nH]c2ccccc12)C(=O)O (centres unmarked) [CBK267701]	165.521%
Brc1cccc(OCc2cccs2)c1 [CBK176011]	83.6047%

SMILES	% of control remaining
O=C(O)CNS(=O)(=O)c1ccc2ccccc2c1 [CBK034460]	166.967%
O=C(c1ccc(-c2cncc(-c3cc4ccccc4[nH]3)c2)cc1)N1CCOCC1 [CBK158419T]	98.6655%
Cn1c(SCCN2CCOCC2)nnc1-c1cccs1 [CBK010243]	118.18%
O=C(O)CNC(=O)/C(=C\c1ccco1)NC(=O)c1ccccc1Cl [CBK263967]	109.6%
COc1nccc(N2CCN(C)C3(CCNC(=O)CC3)C2)c1C#N (centres unmarked) [CBK307676]	136.236%
O=C1/C(=C/c2ccccc2)S/C(=N/N=C/c2ccccc2)N1c1ccc(O)cc1 [CBK262803]	126.479%
Cc1c(C)n(CC(=O)O)c2ccccc12 [CBK000884]	91.0701%
O=S1(=O)N=C(Nc2ccc(S(=O)(=O)N3CCOCC3)cc2)c2ccccc21 [CBK269116]	110.039%
Cc1cc(OC(C)C(=O)Nc2ncccc2C)ccc1Cl (centres unmarked) [CBK269637]	152.487%
CCC1CN(c2cc(CO)c(F)cn2)CC2(CCOC2)O1 (centres unmarked) [CBK304757]	151.882%
Cc1cc(C)n(CCCC(=O)N2CCC3(CCCO3)CC2)n1 [CBK304397]	104.944%
c1ccc2oc(NC3=NCN(Cc4ccc5c(c4)OCO5)CN3)nc2c1 [CBK267964]	107.624%
Cc1ccc(CN2CC[C@@H]3[C@H](C2)[C@@H](c2ccsc2)CN3C(=O)c2ccccc2F)cc1 [CBK285658]	78.6749%
CC(=O)Nc1cccc(OCC(=O)Nc2ccc(C)c(C)c2)c1 [CBK265429]	106.534%
COC(=O)c1sc2cc(C(F)(F)F)cnc2c1NC(=O)C1COc2ccccc2O1 (centres unmarked) [CBK115865]	101.448%
COc1ccc(C2(C(=O)N3CCN(C)CC3)CC2)cc1 [CBK149837]	113.912%
COc1ccc2c(c1)c(C(C(=O)O)N1CCN(c3ccccn3)CC1)cn2CC(=O)O (centres unmarked) [CBK286637]	104.517%
CCOCCN(CCOCC)c1nnc2ccc(Cl)nn12 [CBK010024]	134.104%
COc1cc(C(=O)N2CCC3(CC2)CC(=O)c2cc(C)c(C)cc2O3)ccc1C [CBK164202]	147.735%
Cc1cc(-c2ccccc2)nn(CCN2CCOCC2)c1=O [CBK023022C]	125.154%
COc1ccc(C2(C(=O)NCCc3ccc(O)cc3)CC2)cc1 [CBK149833]	109.47%
Nc1nc(N)c2cc(C(F)(F)F)ccc2n1 [CBK025934]	33.3196%
O=C(Nc1cc(-c2nc3ncccc3o2)ccc1Cl)c1ccc(-c2ccccc2[N+](=O)[O-])o1 [CBK264097]	100%
C[C@@H](Nc1nccnc1-c1cccnc1)c1ccccc1 [CBK036759]	87.8774%
N=C1NC(=O)/C(=C\c2ccc(-c3ccc(Br)cc3)o2)S1 [CBK261409]	97.232%
O=C1Nc2ccccc2C(O)(C(=O)NCc2ccccc2)N1c1ccccc1 (centres unmarked) [CBK288555]	94.96%
O=C(O)CCCN1C(=O)C(O)=C(C(=O)c2ccccc2)C1c1ccccc1 (centres unmarked) [CBK262924]	134.391%

SMILES	% of control remaining
COc1cccc(C(=O)NCCC(=O)N2CCN(C)CC2)c1 [CBK304663]	97.2783%
O=C(Cn1ncn2c(cc3ccsc32)c1=O)NCc1cccs1 [CBK284197]	74.7233%
CCc1noc(C)c1C(=O)NCC1CCCCN1CC (centres unmarked) [CBK282201]	114.743%
O=C(c1ccccc1)N1CCN(Cc2cc(=O)n3ccsc3n2)CC1 [CBK306095]	121.295%
Cc1cc(C2CCCCCN2C(=O)c2c(Cl)cnn2C)on1 (centres unmarked) [CBK283045]	89.7747%
CN1CCN(C(=O)CSc2nnc(COc3ccccc3)o2)CC1 [CBK268970]	144.601%
Cc1cc(C(=O)N2CCn3cnnc3C2)c(C2CC2)o1 [CBK282059]	92.4311%
O=[N+]([O-])c1ccc(S(=O)(=O)Nc2cccc3[nH]ccc23)cc1 [CBK159550]	78.7569%
Cc1ccc(-c2nnc(CNC(=O)c3cccc(-c4ccc(F)cc4)c3)o2)s1 [CBK286300]	91.9443%
Cc1ccc(C)n1-c1ccc(C(=O)OCC(=O)c2cccc([N+](=O)[O-])c2)cc1 [CBK264427]	105.936%
COCc1cc(=O)oc2cc(NS(C)(=O)=O)ccc12 [CBK008516]	141.816%
Cc1cc(C)nc(NC(=O)C2C3C=CC(C3)C2C(=O)O)c1 (centres unmarked) [CBK058843]	83.7912%
COc1ccc(NS(=O)(=O)c2ccc(N3CCCC3=O)cc2)cn1 [CBK270216]	129.593%
Cc1cc(/C=C(/C#N)c2nc3ccccc3[nH]2)c(C)n1-c1ccc(S(N)(=O)=O)cc1 [CBK264769]	100%
Cc1nc2ccc(NC(=O)CC3CCN(C(=O)CC4CCCCC4)CC3)cc2[nH]1 [CBK285967]	142.003%
CCN(Cc1cn2cccc(C(=O)OC)c2n1)CC1CCOC1 (centres unmarked) [CBK304880]	103.742%
CC(C(=O)NCCn1nc(-c2ccco2)ccc1=O)c1ccccc1 (centres unmarked) [CBK283861]	124.35%
CN(c1ncc(Br)cc1C(=O)NC1CCCCC1)S(C)(=O)=O [CBK076531]	103.983%
Cn1cncc1C(=O)NC1CCCC1 [CBK200256]	93.406%
COc1cccc(-n2cnc3cccc(N)c32)c1 [CBK022114]	134.897%
Nc1ncnc2[nH]c(SCc3nc4ccc(I)cc4c(=O)n3-c3ccccc3)nc12 [CBK267174]	113.526%
N=C1NC(=O)/C(=C/c2cccc(OCCOc3ccc(C4CCCCC4)cc3)c2)S1 [CBK263956]	100%
O=C(NCc1ccco1)c1cc(S(=O)(=O)N2CCOCC2)ccc1Br [CBK269907]	158.656%
O=C(CC(C(=O)O)n1cccn1)c1ccc(Br)cc1 (centres unmarked) [CBK269541]	145.179%
Cc1cc(C)n(CCC(=O)NCC(c2ccccn2)N2CCOCC2)n1 (centres unmarked) [CBK307396]	130.173%
CCOC(=O)Cn1c(C)nc(C)cc1=O [CBK012419]	129.782%

In a second layout: entries from further up
SMILES | % of control remaining
O=C(Cn1ncn2c(cc3ccsc32)c1=O)NCc1cccs1 [CBK284197] | 74.7233%
CCc1noc(C)c1C(=O)NCC1CCCCN1CC (centres unmarked) [CBK282201] | 114.743%
O=C(c1ccccc1)N1CCN(Cc2cc(=O)n3ccsc3n2)CC1 [CBK306095] | 121.295%
Cc1cc(C2CCCCCN2C(=O)c2c(Cl)cnn2C)on1 (centres unmarked) [CBK283045] | 89.7747%
CN1CCN(C(=O)CSc2nnc(COc3ccccc3)o2)CC1 [CBK268970] | 144.601%
Cc1cc(C(=O)N2CCn3cnnc3C2)c(C2CC2)o1 [CBK282059] | 92.4311%
O=[N+]([O-])c1ccc(S(=O)(=O)Nc2cccc3[nH]ccc23)cc1 [CBK159550] | 78.7569%
Cc1ccc(-c2nnc(CNC(=O)c3cccc(-c4ccc(F)cc4)c3)o2)s1 [CBK286300] | 91.9443%
Cc1ccc(C)n1-c1ccc(C(=O)OCC(=O)c2cccc([N+](=O)[O-])c2)cc1 [CBK264427] | 105.936%
COCc1cc(=O)oc2cc(NS(C)(=O)=O)ccc12 [CBK008516] | 141.816%
Cc1cc(C)nc(NC(=O)C2C3C=CC(C3)C2C(=O)O)c1 (centres unmarked) [CBK058843] | 83.7912%
COc1ccc(NS(=O)(=O)c2ccc(N3CCCC3=O)cc2)cn1 [CBK270216] | 129.593%
Cc1cc(/C=C(/C#N)c2nc3ccccc3[nH]2)c(C)n1-c1ccc(S(N)(=O)=O)cc1 [CBK264769] | 100%
Cc1nc2ccc(NC(=O)CC3CCN(C(=O)CC4CCCCC4)CC3)cc2[nH]1 [CBK285967] | 142.003%
CCN(Cc1cn2cccc(C(=O)OC)c2n1)CC1CCOC1 (centres unmarked) [CBK304880] | 103.742%
